Laboratory results taken from publication PMC3424243.

Sequences of proteins named here, by UniProt entry; tags and fusion partners are left off. A change or cut given only in a name is not applied to a line headed by its entry.
UniProt Q95XC8: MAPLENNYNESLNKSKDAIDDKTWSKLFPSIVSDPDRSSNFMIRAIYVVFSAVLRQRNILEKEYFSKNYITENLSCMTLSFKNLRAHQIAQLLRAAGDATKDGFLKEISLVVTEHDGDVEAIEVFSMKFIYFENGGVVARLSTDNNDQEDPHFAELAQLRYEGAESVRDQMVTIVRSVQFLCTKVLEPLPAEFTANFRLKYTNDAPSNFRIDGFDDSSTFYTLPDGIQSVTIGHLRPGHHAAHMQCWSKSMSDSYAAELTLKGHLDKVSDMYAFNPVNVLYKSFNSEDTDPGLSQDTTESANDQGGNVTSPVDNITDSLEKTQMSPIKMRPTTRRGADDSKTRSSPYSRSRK

T1: GFP::LAB-1::HA expressed in a transgenic C. elegans line (C. elegans) (UniProt Q17604)
T1 sequence: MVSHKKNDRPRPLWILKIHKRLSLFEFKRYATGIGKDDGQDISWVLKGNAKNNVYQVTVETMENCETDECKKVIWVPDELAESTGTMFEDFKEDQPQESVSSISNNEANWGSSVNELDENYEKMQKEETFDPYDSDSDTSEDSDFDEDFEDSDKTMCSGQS


Biological target: T1, GFP::LAB-1::HA expressed in a transgenic C. elegans line (C. elegans)
Test: affinity purification with mass spectrometry; immunoprecipitation with GFP antibodies from whole worm lysates of the line expressing GFP-LAB-1, mass spectrometry; stringent conditions

| binding | Molecule |
| --- | --- |
| binds | HTP-2, axial element protein (from UniProt Q95XC8) |
| binds | HTP-1, axial element protein (protein, UniProt Q20305 1-352) MAPLETIYDESLNKSADSIDDKKWSKLFPRIVSDPDRSSNFMTRAIYVAFSAVLRNRNILGQEYFTKNYITEKLKCMTLCFRNPRSNQIAQLLRNAGDATKDGFLKEVSLVITNNEGDLEAIEVFSMKFIYFENGGVVARLSTDKNGQEDPHFAKLAQLVYEGGDSVRDQMVTIVRSVQFLCTKVLEPLPEEFTANFRLEYTNDAPSNFRIDGFEDSSTFYTLPDDIQSATIGHLRPGCHAANMECWSMLMSDSYEAELTLKRHLDKVSDRHGFNPVNVLYKSFNSEDSDTSLSQATTESVNDQGGNETSPVDDITESLEKAQMSPIQTRPTTRRGADGSKTRSSPYSRSCK |
| binds | HTP-3, axial element protein (protein, UniProt O01820 1-739) MDESFDSSVVPGSLTSDDRAIFNEQTLKNGDENSKSSLEVMANCVYLANSTILRERKVIPAEYFQDFQVYGDVSGYTLRQDIPEGRSVSSKLLASHDAIRQKLLQKLAIVVEESLNTNPVETFVWTFVYDSTTSASAEIGYGGRKSKFVVNYLNMDDTAQQFCKMFSELRNVLSLLRPLPRGLIPSMKVAYRGEPEFVPGFQQVDDFVNPEQINLGAVSFPHGNGFQFAYASKFMVEQPSAIRPPVEVSHFEDDLLNSTITPIEVVRDNTMNCAENPELDEIYFSPGRQEVRMDEDVANESIRCNPSMASEMMVLQSEYNVLIADNDEVPMVVERERSPIVKAAKKRSTRAPAVPITPTEPASPVESPVKEQPQKAPKAQMRRSSKRTTKNNERCEQKEEEPIVNPKRRSARRLVPPVEVDEQPEEQNDDDAQNSLQIDSDAQNSLQIDSDAIITSPEKRNESKSAIPEEAADLDNTTSEKQESSTARYGVSNTSINRKKPDPVANPVSEEAQVDLANGSIPDKRPRKRKYGRVSSILDVADLPTDDTVEEDVRESPIYGRVPSILDVARAEENDAQNDAQDAQNEIAVEGLADLSIDTEQHEEAAPINVTGHQSESVPIIVTEHQSEEAQTVVTEQPAGAASVIAAERHYGRVSSILDVAGSFADVDPSGAAPAIATERHYGRVSSILDVAGSLSDVDPQEDTESSTQNQSTSKKFKPNPPKAMRYGQSPNMPSRRGN |
| binds | HIM-3, axial element protein (protein, UniProt G5EBG0 1-291) MATKEQIVEHRESEIPIASQWKATFPVDLEIEKNSEMFALRYIKCASAFILDRRGILDEKCFKTRTIDKLLVTAFQSSVPAAKRVSSTFDGLRDAIQQGYLREFAIVFYKKPNEEDINEVFAFRFAYGDEGEIFVSLNNGIDTNESSQELLQAKFVDTDNTKQMFASTIKKLHRCIKKMEPLPQGSDASFRVSYTEKAPKDYTPEGYLLSPMFYTLNQDIRKASIGIVCGGHHKIQMLAASQYLKQDFDLDKTTTLNPNMSIMANQSKRKGRISRDSPYGLSQGITKKNKD |

No constants are given. Whether binding was seen depends on the method and setting. In cells and extracts the contact can be indirect. Here binding means that the protein was enriched with, or labelled near, the bait; the list need not be complete. Where a sequence is shown, tags or fusion partners need not be part of it.
